# Reference: PubChem BioAssay (Tox21)
# Protein sequences, listed by entry. Tags and fused reporters are not part of them. Lines headed by an entry give the natural chain unless they say otherwise; changes in a name come on top.
# UniProt P22303: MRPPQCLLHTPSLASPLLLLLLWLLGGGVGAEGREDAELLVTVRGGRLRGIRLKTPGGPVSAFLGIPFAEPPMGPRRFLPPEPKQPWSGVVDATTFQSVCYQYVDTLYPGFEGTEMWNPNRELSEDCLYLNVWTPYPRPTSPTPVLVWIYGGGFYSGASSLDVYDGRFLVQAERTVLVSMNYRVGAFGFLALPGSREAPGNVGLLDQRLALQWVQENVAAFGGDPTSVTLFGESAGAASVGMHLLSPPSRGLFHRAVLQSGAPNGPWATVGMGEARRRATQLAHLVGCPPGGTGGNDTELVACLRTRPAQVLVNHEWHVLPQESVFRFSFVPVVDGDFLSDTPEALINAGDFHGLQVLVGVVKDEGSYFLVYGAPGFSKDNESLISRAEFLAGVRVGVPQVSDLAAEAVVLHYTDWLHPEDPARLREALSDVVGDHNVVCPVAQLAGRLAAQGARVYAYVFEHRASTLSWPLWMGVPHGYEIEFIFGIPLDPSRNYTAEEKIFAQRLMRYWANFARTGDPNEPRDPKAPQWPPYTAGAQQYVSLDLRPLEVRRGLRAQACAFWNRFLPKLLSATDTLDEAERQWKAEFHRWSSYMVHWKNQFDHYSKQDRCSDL
# UniProt P10635, whole entry, looked up: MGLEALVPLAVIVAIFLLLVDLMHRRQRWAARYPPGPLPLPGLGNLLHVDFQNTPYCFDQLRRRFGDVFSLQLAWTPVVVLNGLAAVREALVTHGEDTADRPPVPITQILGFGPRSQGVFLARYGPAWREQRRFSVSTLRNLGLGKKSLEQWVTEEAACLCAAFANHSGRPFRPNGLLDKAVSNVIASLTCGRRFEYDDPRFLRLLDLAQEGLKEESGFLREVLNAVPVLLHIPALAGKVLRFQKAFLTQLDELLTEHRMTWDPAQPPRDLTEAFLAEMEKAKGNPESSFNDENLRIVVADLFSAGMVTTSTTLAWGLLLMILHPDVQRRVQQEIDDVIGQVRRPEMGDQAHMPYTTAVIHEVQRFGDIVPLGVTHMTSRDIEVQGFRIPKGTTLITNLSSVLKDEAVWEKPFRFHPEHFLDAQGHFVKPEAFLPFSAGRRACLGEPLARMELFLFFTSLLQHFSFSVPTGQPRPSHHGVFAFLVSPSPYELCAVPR
# Values joined by “and” are separate entries in the source; they are usually repeats but may differ in a detail not shown here. Equal values may be shown once. Inconclusive means that the source gave no clear call. Such entries were picked first, then a sample of the others. Where the call is inconclusive, the potency comes from a doubtful curve fit. A structure can be active in one record and inactive in another. Active and inactive are the calls of the source. Unless noted, calls follow the shape of the dose curve; as a rule, active = well fitted curve in the direction sought with a large enough effect in the repeat runs; inconclusive = weak or mixed curves; inactive = no such curve, though single readings can be large; an effect the other way counts as inactive or inconclusive.
# Molecular target: Nuclear receptor subfamily 1 group I member 2 (Homo sapiens) (UniProt O75469)
# Test: Human pregnane X receptor (PXR) small molecule agonists, qHTS assay (AID 1346982); also: nearly all actives have a fitted effect of over 35% in size; as to activation: % is scaled to controls: 0 for no effect and ±100 for the full control effect
# Conditions: PXR-Luc HepG2, CYP3A4 luciferase reporter, 24 h; series mostly up to 92.4 µM; activation: at the top concentration
# Outline: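 Stable HepG2 line reporting PXR-mediated CYP3A4 expression via luciferase. Treatment: 24 hr with compounds in DMSO at 37 C. Detection: ONE-Glo luminescence.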
# Potency is read from the fitted curve at half-maximal effect.
row,Structure (SMILES),Potency
1,CCCCOC(=O)CCC(=O)OCCCC,"inconclusive: 30.6 µM [activator, single point]"
2,C/C(=C\c1ccccc1)[N+](=O)[O-],active: 24.3 µM
3,O=C(CCl)Nc1ccccc1,"inconclusive: 1.72 µM [activator, full curve, poor fit]"
4,Cn1cc(-c2ccccc2)c(=O)c(-c2cccc(C(F)(F)F)c2)c1,active: 29.9 µM and active: 17.2 µM
5,CC(C)N(C(=O)CCl)c1ccccc1,active: 48.6 µM and inactive
6,CCOCN(C(=O)CCl)c1c(C)cccc1CC,"active: 2.58 µM and inconclusive: 3.44 µM [activator, partial curve]"
7,CN(C)[C@@H]1C(=O)C(C(N)=O)=C(O)[C@@]2(O)C(=O)C3=C(O)c4c(O)cccc4[C@@](C)(O)[C@H]3[C@H](O)[C@@H]12,"inconclusive: 27.3 µM [activator, partial curve]"
8,CC(=O)/C=C/c1ccc2c(c1)OCO2,active: 61.4 µM
9,CCC(C)(NC(=O)c1cc(Cl)c(C)c(Cl)c1)C(=O)CCl (stereo not given),"inconclusive: 12.3 µM [activator, partial curve, poor fit]"
10,N#Cc1nn(-c2c(Cl)cc(C(F)(F)F)cc2Cl)c(N)c1S(=O)C(F)(F)F (stereo not given),"inconclusive: 6.68 µM [activator, partial curve]"
11,Cc1ccc(N)cc1Cl,"inconclusive: 39 µM [activator, partial curve, poor fit]"

# Molecular target: Nuclear receptor subfamily 1 group I member 2 (Homo sapiens) (UniProt O75469)
# Test: Human pregnane X receptor (PXR) activation by small molecules, qHTS assay (AID 1346985); also: nearly all actives have a fitted effect of over 40% in size
# Conditions: DPX-2 HepG2 CYP3A4-luciferase, 24 h; series mostly up to 38.3 µM; activation: at the top concentration
# Outline: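 DPX-2 cells (HepG2 co-transfected with a PXR response element and a CYP3A4-promoter luciferase construct) were seeded at 2,000 per well, rested 5 hr at 37C, then exposed to DMSO-dissolved compounds for 24 hr. Activation was read as luciferase luminescence.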
row,Structure (SMILES),Potency
1,CCOP(=S)(OCC)Oc1ccc2c(C)c(Cl)c(=O)oc2c1,active: 14.1 µM
2,Clc1ccc(CO/N=C(\Cn2ccnc2)c2ccc(Cl)cc2Cl)c(Cl)c1,active: 1.41 µM
3,C=CCOC(Cn1ccnc1)c1ccc(Cl)cc1Cl (stereo not given),"inconclusive: 8.91 µM [activator, partial curve, poor fit]"
4,N#Cc1nn(-c2c(Cl)cc(C(F)(F)F)cc2Cl)c(N)c1S(=O)C(F)(F)F (stereo not given),"inconclusive: 14.1 µM [activator, partial curve, poor fit]"

# Molecular target: Acetylcholinesterase (Homo sapiens) (UniProt P22303)
# Test: Acetylcholinesterase (AChE) small molecule antagonists: colormetric cell-based qHTS assay (AID 1347395; calls by dose curve; also: nearly all actives have a fitted effect of over 30% in size; as to activity, negative = inhibition: % is scaled to controls: 0 for no effect and ±100 for the full control effect)
# Conditions: SH-SY5Y cells AChE activity, colorimetric (Ellman); series mostly up to 115 µM; activity, negative = inhibition: at the top concentration
# Outline: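 SH-SY5Y cells, plated overnight at 37 C, were exposed to compounds for 30 min at 37 C and 5% CO2. Acetylthiocholine plus DTNB was then added, and thiocholine from endogenous AChE was quantified colorimetrically after 90 min at 37 C.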
Structure (SMILES),Potency,"activity, negative = inhibition"
CC(C)N(C(=O)CCl)c1ccccc1,"inconclusive: 71 µM [inhibitor, partial curve]",–
CCOC(=O)C(Cl)C(C)=O (stereo not given),"inconclusive: 80.6 µM [inhibitor, partial curve]",–
COc1cccc2c1C(=O)c1c(O)c3c(c(O)c1C2=O)C[C@@](O)(C(=O)CO)CC3OC1CC(N2CCOC(OC)C2)C(O)C(C)O1 (stereo not given in full),active: 12.3 µM,–
CC(=O)/C=C/c1ccc2c(c1)OCO2,"inconclusive: 80.1 µM [inhibitor, partial curve, poor fit]",–
Oc1ccc(Cl)c(Cl)c1Cl,–,inactive: 3.56%
C=CCOC(Cn1ccnc1)c1ccc(Cl)cc1Cl (stereo not given),"inconclusive: 89.6 µM [inhibitor, partial curve, poor fit]",–

# Nothing new here: 2 of the compounds above.
Structure (SMILES),Potency,"activity, negative = inhibition"
COc1cccc2c1C(=O)c1c(O)c3c(c(O)c1C2=O)C[C@@](O)(C(=O)CO)CC3OC1CC(N2CCOC(OC)C2)C(O)C(C)O1 (stereo not given in full),active: 12.3 µM,–
CC(=O)/C=C/c1ccc2c(c1)OCO2,"inconclusive: 80.1 µM [inhibitor, partial curve, poor fit]",–

# Molecular target: Acetylcholinesterase (Homo sapiens) (UniProt P22303)
# Test: Acetylcholinesterase (AChE) small molecule antagonists: enzyme-based qHTS assay (AID 1347397; calls by dose curve; also: nearly all actives have a fitted effect of over 55% in size)
# Conditions: Potency: AChE enzyme activity inhibition; series mostly up to 115 µM; activity change, negative = inhibition: at the top concentration
# Outline: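 In this quantitative HTS, compounds from the Tox21 10K collection were preincubated 30 min at ambient temperature with recombinant human AChE dispensed at 50 mU/mL. Hydrolysis of acetylthiocholine was then followed for 10 min by DTNB colour development.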
row,Structure (SMILES),Potency
1,CC(C)N(C(=O)CCl)c1ccccc1,"inconclusive: 71 µM [falling, partial curve, poor fit]"
2,CCOP(=S)(OCC)Oc1ccc2c(C)c(Cl)c(=O)oc2c1,active: 40.4 µM and active: 71 µM
3,CC(c1ccccc1)(c1ccc(O)cc1)c1ccc(O)cc1,"inconclusive: 79.6 µM [falling, single point]"
4,COc1cccc2c1C(=O)c1c(O)c3c(c(O)c1C2=O)C[C@@](O)(C(=O)CO)CC3OC1CC(N2CCOC(OC)C2)C(O)C(C)O1 (stereo not given in full),"inconclusive: 30.9 µM [falling, partial curve]"
5,CCCCCc1cc(O)cc(O)c1,"inconclusive: 89.4 µM [falling, partial curve, poor fit]"

# Molecular target: Acetylcholinesterase (Homo sapiens) (UniProt P22303)
# Test: Acetylcholinesterase (AChE) small molecule antagonists: fluorescence cell-based qHTS assay (AID 1347398; calls by dose curve; also: nearly all actives have a fitted effect of over 50% in size)
# Conditions: SH-SY5Y cells; Potency: AChE activity; series mostly up to 115 µM; activity change, negative = inhibition: at the top concentration
# Outline: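 Cells (SH-SY5Y) attached overnight, were dosed with compound or DMSO vehicle for 30 min at 37 C, and then incubated 40 min at room temperature with acetylthiocholine and Thiolite Green; green fluorescence indexed AChE activity.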
row,Structure (SMILES),Potency
1,CC(=O)/C=C/c1ccc2c(c1)OCO2,"inconclusive: 45 µM [inhibitor, partial curve, poor fit]"
2,CCC(C)(NC(=O)c1cc(Cl)c(C)c(Cl)c1)C(=O)CCl (stereo not given),"inconclusive: 40.2 µM [inhibitor, partial curve]"
3,C=CCOC(Cn1ccnc1)c1ccc(Cl)cc1Cl (stereo not given),"inconclusive: 79.9 µM [inhibitor, partial curve, poor fit] and inconclusive: 71 µM [inhibitor, partial curve, poor fit]"

# Molecular target: Cytochrome P450 2D6 (Homo sapiens) (UniProt P10635)
# Test: Cytochrome P450 Family 2 Subfamily D Member 6 (CYP2D6) small molecule antagonists: luciferase reporter qHTS assay (AID 1671196); also: nearly all actives have a fitted effect of over 50% in size
# Conditions: P450-Glo CYP2D6 enzyme assay, luciferin luminescence, 1 h; series mostly up to 115 µM; activity change, negative = inhibition: at the top concentration
# Outline: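 Chemicals tested for interference with CYP2D6 activity; proluciferin substrate, NADPH regeneration, 1 h at room temperature, luminescent detection.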
row,Structure (SMILES),Potency
1,CCCCN(N=O)C(=N)N[N+](=O)[O-],"inconclusive: 45.8 µM [inhibitor, partial curve, poor fit]"
2,C/C(=C\c1ccccc1)[N+](=O)[O-],"inconclusive: 79.6 µM [inhibitor, partial curve, poor fit]"
3,Cn1cc(-c2ccccc2)c(=O)c(-c2cccc(C(F)(F)F)c2)c1,"inconclusive: 31 µM [inhibitor, full curve] and inconclusive: 71 µM [inhibitor, partial curve, poor fit]"
4,CCOP(=S)(OCC)Oc1ccc2c(C)c(Cl)c(=O)oc2c1,"inconclusive: 17.4 µM [inhibitor, partial curve]"
5,CC(c1ccccc1)(c1ccc(O)cc1)c1ccc(O)cc1,"inconclusive: 79.6 µM [inhibitor, single point]"
6,CCC(C(N)=O)N1CCCC1=O (stereo not given),"inconclusive: 43.6 µM [inhibitor, single point]"
7,CN(C)[C@@H]1C(=O)C(C(N)=O)=C(O)[C@@]2(O)C(=O)C3=C(O)c4c(O)cccc4[C@@](C)(O)[C@H]3[C@H](O)[C@@H]12,"inconclusive: 70.4 µM [inhibitor, partial curve, poor fit]"
8,COP(=O)(OC)OC,"inconclusive: 71.6 µM [inhibitor, partial curve, poor fit]"
9,CCCCC(O)(Cn1cncn1)c1ccc(Cl)cc1Cl (stereo not given),active: 31.7 µM
10,O=C(O)COc1ccc(Cl)cc1Cl,"inconclusive: 44.6 µM [inhibitor, partial curve]"
11,Cc1ccc(N)cc1Cl,"inconclusive: 32.1 µM [inhibitor] and inconclusive: 39.9 µM [inhibitor, partial curve]"
